According to PubChem BioAssay AID2073 (Sanford-Burnham Center for Chemical Genomics, 2009):
The whole screen tested about 290,000 compounds, of which about 570 (0.2%) were called active. The inconclusive results got no clear call from the source; some entries with a clear call stand among them for comparison. Cut-off read from the data, not from the text of the source: active = inhibition mostly above about 51% (no sharp cut-off); inconclusive = no clear call, values can overlap the other calls; inactive = mostly below about 53%.

Amino acid sequences for entries named in this document (tags omitted).
UniProt Q00975, whole entry, looked up: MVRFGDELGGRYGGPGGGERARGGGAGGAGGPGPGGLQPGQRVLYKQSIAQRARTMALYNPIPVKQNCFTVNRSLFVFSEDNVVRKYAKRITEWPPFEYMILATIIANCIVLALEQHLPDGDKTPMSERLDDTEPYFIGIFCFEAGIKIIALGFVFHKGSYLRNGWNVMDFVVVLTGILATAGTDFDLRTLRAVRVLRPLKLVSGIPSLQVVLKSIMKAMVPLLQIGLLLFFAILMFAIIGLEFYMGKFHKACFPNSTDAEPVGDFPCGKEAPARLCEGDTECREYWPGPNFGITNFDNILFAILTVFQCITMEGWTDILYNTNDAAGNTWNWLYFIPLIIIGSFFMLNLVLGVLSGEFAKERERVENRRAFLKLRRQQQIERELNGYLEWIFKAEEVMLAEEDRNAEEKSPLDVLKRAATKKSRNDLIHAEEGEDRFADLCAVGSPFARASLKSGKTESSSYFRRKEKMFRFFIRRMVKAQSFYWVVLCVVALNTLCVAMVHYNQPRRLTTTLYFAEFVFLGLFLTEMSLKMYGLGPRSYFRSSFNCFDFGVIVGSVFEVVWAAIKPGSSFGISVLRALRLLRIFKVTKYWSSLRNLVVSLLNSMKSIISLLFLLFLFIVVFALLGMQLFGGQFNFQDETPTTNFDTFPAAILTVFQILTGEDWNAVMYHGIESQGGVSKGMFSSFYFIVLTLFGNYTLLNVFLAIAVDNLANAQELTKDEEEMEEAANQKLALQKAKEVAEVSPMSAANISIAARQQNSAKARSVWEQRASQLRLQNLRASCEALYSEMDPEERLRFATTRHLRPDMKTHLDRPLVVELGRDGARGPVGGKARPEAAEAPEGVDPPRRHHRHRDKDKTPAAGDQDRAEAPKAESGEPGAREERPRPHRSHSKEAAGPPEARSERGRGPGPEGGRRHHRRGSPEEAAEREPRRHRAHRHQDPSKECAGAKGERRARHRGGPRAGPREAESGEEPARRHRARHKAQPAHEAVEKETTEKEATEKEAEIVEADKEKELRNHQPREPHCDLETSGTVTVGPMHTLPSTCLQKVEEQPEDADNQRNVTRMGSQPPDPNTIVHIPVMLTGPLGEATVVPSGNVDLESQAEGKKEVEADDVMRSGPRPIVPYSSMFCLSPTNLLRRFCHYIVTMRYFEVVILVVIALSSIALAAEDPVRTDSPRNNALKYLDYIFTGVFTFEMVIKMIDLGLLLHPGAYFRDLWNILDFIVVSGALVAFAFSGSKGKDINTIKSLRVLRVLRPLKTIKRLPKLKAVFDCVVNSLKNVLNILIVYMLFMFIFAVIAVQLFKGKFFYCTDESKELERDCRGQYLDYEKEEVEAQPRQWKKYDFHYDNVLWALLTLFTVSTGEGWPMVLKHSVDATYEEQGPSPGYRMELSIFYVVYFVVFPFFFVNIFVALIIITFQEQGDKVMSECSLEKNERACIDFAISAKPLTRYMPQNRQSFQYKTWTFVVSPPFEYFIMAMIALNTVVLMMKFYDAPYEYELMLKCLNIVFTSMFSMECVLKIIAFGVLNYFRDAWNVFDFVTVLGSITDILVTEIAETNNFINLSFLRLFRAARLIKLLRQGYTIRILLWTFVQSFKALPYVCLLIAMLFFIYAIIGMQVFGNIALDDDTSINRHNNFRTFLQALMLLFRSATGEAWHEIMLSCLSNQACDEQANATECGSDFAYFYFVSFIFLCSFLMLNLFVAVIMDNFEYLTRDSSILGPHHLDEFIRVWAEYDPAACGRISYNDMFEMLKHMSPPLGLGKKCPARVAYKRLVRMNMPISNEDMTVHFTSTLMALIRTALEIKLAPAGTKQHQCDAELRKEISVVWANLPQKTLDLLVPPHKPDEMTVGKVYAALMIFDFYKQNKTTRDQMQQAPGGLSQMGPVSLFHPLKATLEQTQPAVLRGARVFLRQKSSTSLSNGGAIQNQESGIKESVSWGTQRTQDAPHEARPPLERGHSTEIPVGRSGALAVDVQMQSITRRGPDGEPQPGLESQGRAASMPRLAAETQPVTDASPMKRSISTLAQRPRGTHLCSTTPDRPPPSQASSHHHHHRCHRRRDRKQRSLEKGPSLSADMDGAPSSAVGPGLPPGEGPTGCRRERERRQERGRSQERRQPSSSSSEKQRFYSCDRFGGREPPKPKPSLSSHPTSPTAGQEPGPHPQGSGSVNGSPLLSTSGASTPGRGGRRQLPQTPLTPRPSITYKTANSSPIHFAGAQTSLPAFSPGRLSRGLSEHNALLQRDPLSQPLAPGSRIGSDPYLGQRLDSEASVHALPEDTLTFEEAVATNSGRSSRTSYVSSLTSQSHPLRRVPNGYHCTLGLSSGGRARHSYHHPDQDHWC

Biological target: Voltage-dependent N-type calcium channel subunit alpha-1B (Homo sapiens) (UniProt Q00975)
Test: disruptors of CaV2.2 binding to Mint1 – biochemical, HTRF (AID 2073)
Settings: HTRF protein-protein interaction, Mint1-CaV2.2; at 20 µM; active compounds read high

Row | SMILES | inhibition
1 | CC(C)Nc1nc2c(c(=O)n(C)c(=O)n2C)n1C | inconclusive: 61.1%
2 | COc1ccc(S(=O)(=O)N2Cc3ccccc3CC2C(=O)N2CCOCC2)cc1OC (stereo not drawn) | inconclusive: 83%
3 | COC(=O)c1ccc(NC(=O)CCn2cccc2)cc1 | inactive: 3.2%
4 | O=C([C@@H]1Cc2ccccc2CN1)N1CCN(Cc2ccccc2)CC1 | inactive: 8.9%
5 | COc1ccc(N2CSC3=C(C#N)C(c4cc(OC)ccc4OC)CC(=O)N3C2)c(OC)c1 (stereo not drawn) | active: 69.2%
6 | Cc1cccc(NC(=O)C2CCCN(C(=O)Nc3ccccc3)C2)c1C (stereo not drawn) | inconclusive: 54.9%
7 | COc1ccccc1C1CC(=O)Nc2cc3c(cc21)OCCO3 (stereo not drawn) | inconclusive: 65.2%
8 | CCN1C(=O)[C@H]2[C@@H](c3ccc(C)cc3)N3C(=O)N(c4ccc(C(F)(F)F)cc4)C(=O)[C@@]3(Cc3ccccc3)[C@H]2C1=O | inconclusive: 60.5%
9 | COCCNC(=O)c1cnn2c(C(F)(F)F)cc(-c3ccc4c(c3)OCO4)nc12 | inconclusive: 72.4%
10 | CCOc1ccc2cc(C#N)c(SCC(=O)OC)nc2c1 | inconclusive: 54.4%
11 | CC(C)CC(=O)N1CC(C)N(C(=O)CC(C)C)CC1C (stereo not drawn) | inactive: 4.2%
12 | O=C(NCc1ccccc1Cl)c1ccc2c(c1)SC1=NS(=O)(=O)CCN12 | inconclusive: 75.2%
13 | O=C(CSc1nc2ccccc2s1)NCCCN1CCOCC1 | inconclusive: 72.1%
14 | CN(C)CCNc1nc2c(c(=O)[nH]c(=O)n2C)n1CC(O)COc1ccc(Cl)cc1 (stereo not drawn) | inactive: -3%
15 | CCOc1ccc(/C=C/C(=O)c2ccccc2)cc1 | inconclusive: 53%
16 | CCOc1ccc2cc(C#N)c(SCC(=O)NC(C)CC)nc2c1 (stereo not drawn) | inconclusive: 58.9%
17 | N#Cc1nc(-c2cccc3ccccc23)oc1NCC1CCCO1 (stereo not drawn) | inconclusive: 52.1%
18 | COc1ccc(/C=C2\SC(=S)N(CCC(=O)NCCCN3CCOCC3)C2=O)cc1 | inactive: -10.7%
19 | O=C(Nc1ccc(N2C(=O)CCC2=O)cc1Cl)c1cccs1 | inconclusive: 53.4%
20 | CN1CCSc2ccc(C(=O)NCc3ccccc3F)cc21 | inconclusive: 54.3%
21 | S=C(Nc1cccnc1)Nc1cccc2cnccc12 | inactive: 79.7%
22 | O=C(CSc1nnc(Cc2csc(Nc3cccc(Cl)c3)n2)o1)N1CCc2ccccc21 | inconclusive: 52.3%

Row | SMILES | inhibition
23 | COc1ccccc1N1CCN(C(=O)C2CCN(C(=O)c3cccc(Cl)c3)CC2)CC1 | inactive: 6.4%
24 | COC(=O)C1=C(C)NC(C)=C(C(=O)OC)C1c1cc2cc(C)ccc2[nH]c1=O | inactive: 17.4%
25 | C=CC#CC1(O)CC(C)[N+](C)(C)CC1C (stereo not drawn) | inactive: 17.6%
26 | COc1ccc(-c2nn(-c3ccccc3)cc2C#N)cc1 | inconclusive: 55.9%
27 | CCOC(=O)c1cc2c(=O)n3ccccc3nc2n(CCCOC)c1=NC(=O)c1cccnc1 | inconclusive: 73.2%
28 | Cc1cccc(C)c1NCc1n[nH]c(=S)n1-c1ccccc1 | inactive: -8.3%
29 | O=C(c1ccccc1)C1CN(Cc2ccccc2)CCC1(O)c1ccccc1 (stereo not drawn) | inconclusive: 73.5%
30 | Cc1cc2c(C)c(C)c(=O)[nH]c2cc1N | inconclusive: 52.3%
31 | O=C(Nc1ccc(OC(F)F)cc1)c1ccccn1 | inconclusive: 65.1%
32 | Cc1c(C(=O)/C=C/c2cccs2)oc2ccc(F)cc12 | inactive: -6.1%
33 | CC(C)C(=O)NC(Nc1ccc(S(N)(=O)=O)cc1)C(Cl)(Cl)Cl (stereo not drawn) | inconclusive: 79.9%
34 | CS(=O)(=O)Oc1ccc(Br)c2cccnc12 | inconclusive: 86.4%
35 | O=C(Cc1csc(Nc2nc(=S)[nH]c3ccccc23)n1)N1CCN(c2cccc(Cl)c2)CC1 | inconclusive: 50.4%
36 | CCOC(=O)c1c(-c2ccccc2)oc2ccc(OC(C)=O)cc12 | inactive: 7.9%
37 | Cn1c(N)c(C(=O)COC(=O)c2cc(-c3ccco3)nc3ccccc23)c(=O)n(Cc2ccccc2)c1=O | active: 58.1%
38 | COc1ccc(C2CC(c3ccccc3)=NN2c2ccc(Cl)c(C(=O)O)c2)cc1 (stereo not drawn) | inconclusive: 52.6%
39 | Cn1c(C(=O)NCc2ccccn2)cc2c(=O)n3ccccc3nc21 | inconclusive: 50.7%
40 | CN(C)c1ccc(-c2nnc(-c3ccc(S(=O)(=O)C(F)F)cc3)o2)cc1 | inconclusive: 53.3%
41 | S=C(NCCc1ccccc1)NC1CC2CCC(C1)N2Cc1ccccc1 (stereo not drawn) | inconclusive: 72.6%
42 | COc1ccc(-c2nnc(SCC(=O)Nc3nncs3)o2)cc1 | inconclusive: 56.2%
43 | COc1cc(C=C2C(=O)c3ccccc3C2=O)cc(OC)c1OC | inconclusive: 70.9%
44 | CCCS(=O)(=O)c1nc(S(=O)(=O)c2ccc(C)cc2)c(N2CCC(C)CC2)s1 | inconclusive: 58.8%

Single values from above.
Entry for `COc1ccccc1C1CC(=O)Nc2cc3c(cc21)OCCO3` (stereo not drawn) under inhibition: inconclusive: 65.2%
Entry for `Cc1cccc(NC(=O)C2CCCN(C(=O)Nc3ccccc3)C2)c1C` (stereo not drawn) under inhibition: inconclusive: 54.9%
Entry for `CCOc1ccc2cc(C#N)c(SCC(=O)NC(C)CC)nc2c1` (stereo not drawn) under inhibition: inconclusive: 58.9%
Entry for `CCCS(=O)(=O)c1nc(S(=O)(=O)c2ccc(C)cc2)c(N2CCC(C)CC2)s1` under inhibition: inconclusive: 58.8%
Entry for `COc1ccc(/C=C2\SC(=S)N(CCC(=O)NCCCN3CCOCC3)C2=O)cc1` under inhibition: inactive: -10.7%

(listing goes on)

Row | SMILES | inhibition
45 | CCOc1ccc(N(CC(=O)NCCSCc2ccccc2Cl)S(C)(=O)=O)cc1 | inconclusive: 82.4%
46 | Cn1c(=O)cc(OCCCC(=O)NCc2cccnc2)c2ccccc21 | inconclusive: 53.2%
47 | O=C(NC(Cc1ccccc1)C(=O)O)c1cccnc1Cl (stereo not drawn) | inconclusive: 62.1%
48 | O=C(O)CN1C(=O)NC2(CCOc3ccccc32)C1=O (stereo not drawn) | inconclusive: 51.9%
49 | N#Cc1c2n(c3c(=O)n(Cc4ccc(Cl)cc4)cnc13)CCCCC2 | inconclusive: 73.6%
50 | O=C(c1ccccc1)c1ccc2nc(-c3ccco3)c(-c3ccco3)nc2c1 | active: 76.5%
51 | C=CCN1C(=O)c2cccc3c(N4CCCCC4)ccc(c23)C1=O | active: 53.2%
52 | Cc1ccc(C(=O)N(CC(=O)NC2CCCC2)c2ccc3c(c2)OCCO3)s1 | inactive: -11%
53 | Cc1csc(Nc2nc(N)c(C(=O)Nc3cc(Cl)ccc3F)o2)n1 | inconclusive: 63.7%
54 | COc1ccc(C(=O)NCc2cccnc2)cc1S(=O)(=O)N1CCCc2ccccc21 | inconclusive: 52.8%
55 | O=C(CSc1nnnn1C1CCCC1)c1ccc2c(c1)OCCO2 | inconclusive: 54.2%
56 | COc1ccc(C2Nc3cccc4cccc(c34)N2)cc1Br | inactive: 25.7%
57 | O=C(c1cc(COc2ccc(F)c(F)c2)on1)N1CCSCC1 | inconclusive: 51.3%
58 | COc1ccc(-c2nc(CS(=O)CC(=O)NCCc3ccc(C)cc3)c(C)o2)cc1OC (stereo not drawn) | inconclusive: 71.2%
59 | COc1ccc(C(=O)Nc2cccc(C(=O)NCc3ccccc3)c2)cc1 | inconclusive: 80.8%
60 | FC(F)(F)c1ccccc1Nc1nccs1 | inactive: -8.5%
61 | c1ccc2c(c1)nc(N1CCOCC1)c1nncn12 | inconclusive: 68.6%
62 | Cc1ccc2c(c1)N(CCCC(=O)NCc1ccc3c(c1)OCO3)C(=O)CO2 | inactive: 9.3%
63 | CCOC(=O)C(Sc1ncnc2c1sc1nc(N3CCOCC3)c3c(c12)CCCC3)c1ccccc1 (stereo not drawn) | inconclusive: 67.4%
64 | O=Cc1ccc(OCc2ccccn2)cc1 | inconclusive: 73.8%
65 | O=[N+]([O-])c1cccnc1NCc1cccs1 | inconclusive: 62%
66 | CCN(c1ccc(NC(=O)COC(=O)CCc2nc3ccccc3n2-c2ccccc2)cc1)C(C)C | inconclusive: 78.7%

Row | SMILES | inhibition
67 | O=C1c2ccccc2C(=O)C1C1=Nc2ccccc2NC(c2ccccc2)C1 (stereo not drawn) | inconclusive: 90.6%
68 | CCn1c(/C=C/c2cc[n+](C)cc2)nc2ccccc21 | inconclusive: 65%
69 | Nc1ccc(-c2nc3ccc(N)cc3[nH]2)cc1 | inconclusive: 71.9%
70 | Cc1ccc(NC(=O)NC(=O)CSc2nnnn2C)c(C)c1 | inactive: -7.8%
71 | O=[N+]([O-])c1ccc(-c2nc(-c3cccs3)c(-c3cccs3)[nH]2)cc1 | inconclusive: 73.8%
72 | O=C(Cn1cnc2c(nnn2Cc2ccc(F)cc2)c1=O)N1CCN(c2ccccc2)CC1 | inconclusive: 75.8%
73 | CC(C)(C)C1=CC(=Nc2ccccc2N)C=C(C(C)(C)C)C1=O | inconclusive: 88.1%
74 | CC1(C)OC(=O)C(=CNCCc2ccc(O)cc2)C(=O)O1 | inconclusive: 55.9%
75 | O=C(OCC1O[C@@H](OC(=O)c2cc(O)c(O)c(O)c2)[C@@H](OC(=O)c2cc(O)c(O)c(O)c2)[C@@H](OC(=O)c2cc(O)c(O)c(O)c2)[C@@H]1OC(=O)c1cc(O)c(O)c(O)c1)c1cc(O)c(O)c(O)c1 (stereo partly drawn) | inconclusive: 59.3%
76 | O=C(NC1CCCCC1)c1ccc(-c2ccccc2[N+](=O)[O-])o1 | inconclusive: 56.3%
77 | COc1cc(/C=C(\C#N)c2nc3ccccc3s2)cc([N+](=O)[O-])c1O | inactive: 40.5%
78 | Cc1c(O)ccc2c3c(c(=O)oc12)CCCC3 | inconclusive: 50.2%
79 | Cc1ccc(NC(=O)c2cc(N3C(=O)C=CC3=O)ccc2N2CCOCC2)cc1Cl | inactive: -7.4%
80 | Cc1ccccc1NC(=O)Cc1nc(COC(=O)c2cc([N+](=O)[O-])ccc2N)cs1 | inconclusive: 51%
81 | CCC(C)NC(=O)C1c2ccccc2C(=O)N1Cc1ccc(F)cc1 (stereo not drawn) | inconclusive: 51.8%
82 | COc1cc2ccc(=O)oc2c(O[C@@H]2O[C@H](CO)[C@@H](O)[C@H](O)[C@H]2O)c1O | inconclusive: 93%
83 | CCC(CC)c1nnc(NC(=O)Cc2cccs2)s1 | inconclusive: 67.5%
84 | CC(=O)Nc1nc(=S)n(-c2ccccc2)[nH]1 | inconclusive: 54.3%
85 | CCOC(=O)CSc1nc(C)c2cc(OC)ccc2n1 | inconclusive: 54.3%
86 | O=C(NC1CCCCC1)c1ccc(S(=O)(=O)NCc2ccco2)cc1 | inconclusive: 57.1%
87 | Cc1[nH]n(-c2ccc(F)cc2)c(=O)c1C=Nc1ccc(S(=O)(=O)N(C)C)cc1 | inconclusive: 73.6%
88 | CCOC(=O)c1sc(NC(=O)CN2C(=O)NC3(CC(C)CC(C)(C)C3)C2=O)c(C(=O)OCC)c1C (stereo not drawn) | inactive: 13.6%
